Data published in publication PMC5552922.
For some of these results: Negatives hold for the conditions tested. Where a protein sequence is shown, tags need not be part of it. For some of these results: For at least one entry, the source does not settle the construct or the ends of the probe. For some of these results: At least one verdict rests on a figure or table, not on a statement of the authors.

Columns and labels:
[1] = target: T1, DdrOC (DdrO) (Deinococcus deserti) (UniProt C1CYP4); assay: EMSA; conditions: EMSA: 10 mM Tris-HCl pH 7.4, 60 mM NaCl, 1 mM DTT, 5% glycerol, 200 ng DNA in 20 ul, 30 min room temperature, 5% PAGE in TAE at 4 C, ethidium bromide, recombinant protein, protein details: untagged (His6-SUMO removed by SUMO protease), probe letters rebuilt from the primers and the genome
T1 sequence (looked up, limits assumed): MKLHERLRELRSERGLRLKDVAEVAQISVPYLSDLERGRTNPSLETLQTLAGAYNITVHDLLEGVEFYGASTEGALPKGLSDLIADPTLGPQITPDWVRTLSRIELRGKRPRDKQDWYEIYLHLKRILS

[2] = target: T2, DdrOC cleaved by IrrE (Deinococcus deserti) (UniProt C1CYP4); assay: EMSA; conditions: DdrO preincubated with IrrE (1.7 uM each) before DNA; EMSA: 10 mM Tris-HCl pH 7.4, 60 mM NaCl, 1 mM DTT, 5% glycerol, 200 ng DNA in 20 ul, 30 min room temperature; 5% PAGE in TAE at 4 C, ethidium bromide; recombinant protein; residues 1-106; protein details: untagged; probe letters rebuilt from the primers and the genome
T2 sequence (looked up): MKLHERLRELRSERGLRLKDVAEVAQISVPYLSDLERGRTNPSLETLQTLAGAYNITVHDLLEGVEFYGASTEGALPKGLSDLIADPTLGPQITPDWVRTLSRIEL

Row | Sequence | binding result ([1]; 0.8 uM DdrO, 57 nM DNA) | binding result [2] | binding result ([1]; 0.8 uM DdrO, 64 nM DNA) | binding result ([1]; DdrO preincubated with inactive IrrE-E83Q (1.7 uM each) before DNA)
1 | TATAGGTACCGGTACTCCTTCCTGTCCGACAGCAGACAGCGAGGCAAAGCATGAATAGTCGGTCTTAAGGGGGTAAAAGCCTTCTTGATTACGATCATAGCAGATCGTCTCGTGGTGGGCAAGAAGAACTCCTCTCTATTCTGTATTGACCGTACCGGGAAGCGGTGTTACACTCCAACCAAGGGTGCCCGATTCTGCCTACAGGCAAACGCTCCCCCAGGCGGCCCGCCCGGTCAGCGCACAGTCCCGGTCGCTCAAAGCTGCAGTATC (double strand) [ddrOC-ddrQ intergenic region] | binds |  |  | 
2 | TCTGGGTACCGTGAGCTATGGACCCTCGGCCTGCCGCGGCTACGGCGTCTACACGCGCGTCAACGGCTATATCAACTGGATCTATCAGCAGACAGGAATTGGCGCACAGTAATTCGAATTGTTTGGACTACCCCTGGCTAGAGCTGGGGGTTTTCCACGTTCGGGAGCGCAAAAACCAACCGATAATCACCTTACTCGGAAGAGGAATTACGCCTTGACCAGAATTCCATTCTGTTATAAACTAAATCCATCTGCAGGAGCGATGTACAG (double strand) [ddrA promoter region] |  | no binding | binds | binds
